{"source": "patent EP0565674B1", "about": "“METHOD FOR MEMORY ENHANCEMENT AND QUALITY OF LIFE IMPROVEMENT” (CITY OF HOPE, priority 1991, dated 1993)", "key": {"[1]": {"settings": "means of 4 to 5 brains, both sexes, cited from earlier work"}, "[2]": {"experiment": "Contents of steroids in regions of human brain (Lanthier et al.)"}}, "note": "Where a name gives a salt, the structure may show the parent alone. Read-outs that look alike come from different tables or passages of the source.", "data": [{"smiles": "C[C@]12CC[C@H](OS(=O)(=O)O)CC1=CC[C@@H]1[C@@H]2CC[C@]2(C)C(=O)CC[C@@H]12", "note": "[DHEAS, dehydroepiandrosterone sulfate]", "values": [{"measurement": "content in human brain", "setting": "[1]; Amygdala", "value": 483, "unit": "ng/100 gm"}, {"measurement": "content in human brain", "setting": "[1]; Frontal cortex", "value": 483, "unit": "ng/100 gm"}, {"measurement": "content in human brain", "setting": "[1]; Hippocampus", "value": 459, "unit": "ng/100 gm"}, {"measurement": "content in human brain", "setting": "[1]; Hypothalamus", "value": 364, "unit": "ng/100 gm"}, {"measurement": "content in human brain", "setting": "[1]; Parietal cortex", "value": 264, "unit": "ng/100 gm"}, {"measurement": "content in human brain", "setting": "[1]; Temporal cortex", "value": 305, "unit": "ng/100 gm"}, {"measurement": "ratio to pregnenolone", "setting": "[2]; Amygdala", "value": 0.15}, {"measurement": "ratio to pregnenolone", "setting": "[2]; Frontal cortex", "value": 0.12}, {"measurement": "ratio to pregnenolone", "setting": "[2]; Hippocampus", "value": 0.12}, {"measurement": "ratio to pregnenolone", "setting": "[2]; Hypothalamus", "value": 0.13}, {"measurement": "ratio to pregnenolone", "setting": "[2]; Parietal cortex", "value": 0.07}, {"measurement": "ratio to pregnenolone", "setting": "[2]; Temporal cortex", "value": 0.09}]}, {"smiles": "CC(=O)[C@H]1CC[C@H]2[C@@H]3CC=C4C[C@@H](O)CC[C@]4(C)[C@H]3CC[C@]12C", "note": "[pregnenolone, 5-pregnen-3β-ol-20-one]", "values": [{"measurement": "content in human brain", "setting": "[1]; Amygdala", "value": 3201, "unit": "ng/100 gm"}, {"measurement": "content in human brain", "setting": "[1]; Frontal cortex", "value": 4074, "unit": "ng/100 gm"}, {"measurement": "content in human brain", "setting": "[1]; Hippocampus", "value": 3749, "unit": "ng/100 gm"}, {"measurement": "content in human brain", "setting": "[1]; Hypothalamus", "value": 2786, "unit": "ng/100 gm"}, {"measurement": "content in human brain", "setting": "[1]; Parietal cortex", "value": 3620, "unit": "ng/100 gm"}, {"measurement": "content in human brain", "setting": "[1]; Temporal cortex", "value": 3485, "unit": "ng/100 gm"}]}]}
